Results are given in words; binding and its absence hold for the method and conditions named. In cells and extracts the contact can be indirect. A yes stands for co-enrichment or nearness to the bait. Other partners may have been found.
Key:
[1] = target: T1, UFD-2 (C. elegans U-box ubiquitin ligase), endogenous (C. elegans (endogenous in worms)) (UniProt Q09349); test: affinity purification with mass spectrometry; anti-UFD-2 or anti-UNC-45 antibodies cross-linked to ProteinA-Dynabeads; cleared lysate of heat-shocked L4 worms (2.5 h 34 °C, 2 h recovery 16 °C); 1 h 4 °C; washes with 300 mM KCl, 0.05% NP-40; shotgun nanoLC-MS
T1 sequence: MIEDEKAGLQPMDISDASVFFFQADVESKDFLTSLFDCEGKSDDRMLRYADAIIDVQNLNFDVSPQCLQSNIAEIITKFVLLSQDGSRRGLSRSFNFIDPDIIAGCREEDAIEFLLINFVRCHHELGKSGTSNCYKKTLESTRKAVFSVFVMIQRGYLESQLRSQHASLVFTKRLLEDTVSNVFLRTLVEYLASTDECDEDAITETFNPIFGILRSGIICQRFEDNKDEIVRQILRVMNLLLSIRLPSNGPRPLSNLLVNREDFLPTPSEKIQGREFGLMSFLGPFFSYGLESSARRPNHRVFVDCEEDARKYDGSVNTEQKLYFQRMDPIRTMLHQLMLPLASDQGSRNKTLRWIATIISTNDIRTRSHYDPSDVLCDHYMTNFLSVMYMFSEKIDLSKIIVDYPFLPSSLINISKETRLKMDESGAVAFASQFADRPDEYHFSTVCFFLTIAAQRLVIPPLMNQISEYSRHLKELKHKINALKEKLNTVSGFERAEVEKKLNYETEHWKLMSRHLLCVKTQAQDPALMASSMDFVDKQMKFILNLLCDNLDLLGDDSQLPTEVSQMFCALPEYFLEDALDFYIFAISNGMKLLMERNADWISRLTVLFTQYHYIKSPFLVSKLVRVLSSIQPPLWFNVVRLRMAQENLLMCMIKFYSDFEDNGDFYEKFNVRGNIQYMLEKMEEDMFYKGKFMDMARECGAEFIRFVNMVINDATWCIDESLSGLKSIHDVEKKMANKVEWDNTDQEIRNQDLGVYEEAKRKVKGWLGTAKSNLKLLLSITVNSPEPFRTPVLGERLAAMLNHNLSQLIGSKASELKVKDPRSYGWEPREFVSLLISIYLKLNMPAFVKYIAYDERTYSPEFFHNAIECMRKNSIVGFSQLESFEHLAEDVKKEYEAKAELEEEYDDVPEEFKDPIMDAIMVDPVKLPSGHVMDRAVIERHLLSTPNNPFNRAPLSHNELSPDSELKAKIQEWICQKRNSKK

Sequences of proteins named here, by UniProt entry; tags and fusion partners are left off.
UniProt P02566: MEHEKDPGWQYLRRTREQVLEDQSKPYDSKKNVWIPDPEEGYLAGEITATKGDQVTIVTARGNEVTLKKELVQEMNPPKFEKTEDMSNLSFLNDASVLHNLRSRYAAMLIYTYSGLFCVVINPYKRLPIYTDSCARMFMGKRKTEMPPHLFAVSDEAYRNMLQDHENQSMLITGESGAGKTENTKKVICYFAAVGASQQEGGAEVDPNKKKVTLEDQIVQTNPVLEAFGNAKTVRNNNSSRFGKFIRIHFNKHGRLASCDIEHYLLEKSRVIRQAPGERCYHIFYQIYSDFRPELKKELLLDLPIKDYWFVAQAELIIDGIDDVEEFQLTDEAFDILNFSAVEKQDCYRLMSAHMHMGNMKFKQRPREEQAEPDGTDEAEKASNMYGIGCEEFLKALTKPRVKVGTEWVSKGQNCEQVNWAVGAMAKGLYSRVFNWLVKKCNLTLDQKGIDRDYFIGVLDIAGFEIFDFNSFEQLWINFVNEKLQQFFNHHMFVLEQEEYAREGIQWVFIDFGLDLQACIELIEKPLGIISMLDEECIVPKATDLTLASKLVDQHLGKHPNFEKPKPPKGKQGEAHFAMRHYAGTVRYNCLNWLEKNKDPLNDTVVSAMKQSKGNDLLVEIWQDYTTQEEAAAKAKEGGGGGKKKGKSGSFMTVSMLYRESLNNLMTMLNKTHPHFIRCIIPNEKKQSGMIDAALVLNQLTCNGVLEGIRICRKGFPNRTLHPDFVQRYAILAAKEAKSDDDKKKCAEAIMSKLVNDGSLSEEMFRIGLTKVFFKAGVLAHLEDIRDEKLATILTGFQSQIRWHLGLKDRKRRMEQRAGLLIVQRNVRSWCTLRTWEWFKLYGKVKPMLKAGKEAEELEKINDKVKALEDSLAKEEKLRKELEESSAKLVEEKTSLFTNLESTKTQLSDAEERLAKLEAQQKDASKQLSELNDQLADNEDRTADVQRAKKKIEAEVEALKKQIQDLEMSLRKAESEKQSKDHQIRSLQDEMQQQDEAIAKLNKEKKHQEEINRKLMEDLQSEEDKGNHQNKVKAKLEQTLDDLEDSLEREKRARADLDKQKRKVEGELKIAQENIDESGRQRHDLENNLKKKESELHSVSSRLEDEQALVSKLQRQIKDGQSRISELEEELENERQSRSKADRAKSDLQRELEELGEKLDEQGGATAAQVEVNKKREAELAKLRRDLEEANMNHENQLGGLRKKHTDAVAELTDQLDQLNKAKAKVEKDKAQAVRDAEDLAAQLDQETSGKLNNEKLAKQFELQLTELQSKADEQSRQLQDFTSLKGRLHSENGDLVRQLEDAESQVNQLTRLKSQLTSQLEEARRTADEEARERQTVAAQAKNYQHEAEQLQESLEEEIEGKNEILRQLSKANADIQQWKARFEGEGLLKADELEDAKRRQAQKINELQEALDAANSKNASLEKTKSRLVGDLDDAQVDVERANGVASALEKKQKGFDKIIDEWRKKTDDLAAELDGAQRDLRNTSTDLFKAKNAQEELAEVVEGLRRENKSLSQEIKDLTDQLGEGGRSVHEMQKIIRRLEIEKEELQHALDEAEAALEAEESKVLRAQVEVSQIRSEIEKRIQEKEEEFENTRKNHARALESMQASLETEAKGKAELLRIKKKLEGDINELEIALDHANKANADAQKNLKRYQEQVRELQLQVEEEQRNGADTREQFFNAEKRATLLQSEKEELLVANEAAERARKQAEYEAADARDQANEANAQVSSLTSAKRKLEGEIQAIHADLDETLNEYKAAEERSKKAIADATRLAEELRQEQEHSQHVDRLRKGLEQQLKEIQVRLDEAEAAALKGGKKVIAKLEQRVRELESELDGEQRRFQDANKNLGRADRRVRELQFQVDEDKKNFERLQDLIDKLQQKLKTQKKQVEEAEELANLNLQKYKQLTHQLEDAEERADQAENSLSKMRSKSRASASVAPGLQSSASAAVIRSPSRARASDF

[2] = target: T1, UFD-2 (C. elegans U-box ubiquitin ligase), endogenous (C. elegans (endogenous in worms)); test: affinity purification with mass spectrometry; two additional sets of anti-UNC-45 and anti-UFD-2 IPs from the same worm lysate; parallel reaction monitoring (PRM) of selected UNC-45 and UFD-2 peptides; no peptides in control IPs
[3] = target: T1, UFD-2 (C. elegans U-box ubiquitin ligase), endogenous (C. elegans (endogenous in worms)); test: affinity purification with mass spectrometry; anti-UFD-2 or anti-UNC-45 antibodies cross-linked to ProteinA-Dynabeads; cleared lysate of heat-shocked L4 worms (2.5 h 34 °C, 2 h recovery 16 °C); 1 h 4 °C; washes with 300 mM KCl, 0.05% NP-40; shotgun nanoLC-MS; remark: listed apart in the source
[4] = target: T2, UNC-45 (C. elegans myosin chaperone), endogenous (C. elegans (endogenous in worms)) (UniProt G5EG62); test: as above
T2 sequence: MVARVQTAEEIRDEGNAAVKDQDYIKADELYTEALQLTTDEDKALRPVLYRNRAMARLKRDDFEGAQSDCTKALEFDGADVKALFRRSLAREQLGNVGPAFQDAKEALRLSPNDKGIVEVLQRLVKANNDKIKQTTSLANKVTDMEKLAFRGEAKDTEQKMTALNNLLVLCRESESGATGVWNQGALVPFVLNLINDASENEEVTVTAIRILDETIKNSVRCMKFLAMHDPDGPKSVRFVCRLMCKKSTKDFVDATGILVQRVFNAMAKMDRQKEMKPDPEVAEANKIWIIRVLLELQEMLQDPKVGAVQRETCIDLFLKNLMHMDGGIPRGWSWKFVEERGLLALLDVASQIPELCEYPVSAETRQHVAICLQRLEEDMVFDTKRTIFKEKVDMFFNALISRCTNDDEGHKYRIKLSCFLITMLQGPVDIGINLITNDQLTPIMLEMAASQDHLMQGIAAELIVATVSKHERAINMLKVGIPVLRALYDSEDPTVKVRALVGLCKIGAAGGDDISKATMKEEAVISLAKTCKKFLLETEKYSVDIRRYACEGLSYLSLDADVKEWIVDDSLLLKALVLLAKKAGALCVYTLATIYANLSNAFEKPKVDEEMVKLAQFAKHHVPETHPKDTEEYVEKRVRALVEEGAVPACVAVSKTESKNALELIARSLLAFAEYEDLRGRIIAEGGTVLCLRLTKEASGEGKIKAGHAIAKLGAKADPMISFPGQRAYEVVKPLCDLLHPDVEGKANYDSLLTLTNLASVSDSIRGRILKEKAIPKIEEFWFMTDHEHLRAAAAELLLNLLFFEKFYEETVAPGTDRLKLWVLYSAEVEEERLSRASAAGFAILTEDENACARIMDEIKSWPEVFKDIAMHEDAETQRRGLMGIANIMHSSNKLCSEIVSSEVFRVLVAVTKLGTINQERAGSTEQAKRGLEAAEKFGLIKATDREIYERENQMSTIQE

With “MHC-B (myosin heavy chain B, UNC-54), endogenous (from UniProt P02566 1-1963)” the binding [1] was “binds”.

B1: UNC-45 wild type, crystallised (crystal form UNC-45_(717)) (natural protein, C. elegans, UniProt G5EG62 1-961, looked up)
chain: T2 sequence
notes: UNC-45, C. elegans, wild-type full-length protein used for crystallisation
For B1, the binding [2] was “binds weakly” and the binding [3] was “binds weakly”.

B2: UFD-2 (C. elegans U-box ubiquitin ligase), endogenous (enzyme, UniProt Q09349 1-984)
chain: T1 sequence
In the case of B2, the binding [4] is reported as “binds weakly”.
